From PubChem BioAssay AID720504 (National Center for Advancing Translational Sciences (NCATS), 2013)
Values joined by “and” are separate entries in the source; they are usually repeats but may differ in a detail not shown here. Identical values can stand only once. Out of some 360,000 compounds screened, about 10,000 (2.8%) were called active. Inconclusive results, whose numbers are uncertain, are shown with a selection of clear calls. The call rests on the fitted dose curve; in most records, active means well fitted inhibition curve with a large enough effect; inconclusive means small, poorly fitted or top-dose-only effect; inactive means flat fitted curve, though single readings scatter. Potencies of inconclusive entries are doubtful fits and often do not repeat.

The chains behind the UniProt entries cited, without tags or fusion partners.
UniProt P53350, whole entry, looked up: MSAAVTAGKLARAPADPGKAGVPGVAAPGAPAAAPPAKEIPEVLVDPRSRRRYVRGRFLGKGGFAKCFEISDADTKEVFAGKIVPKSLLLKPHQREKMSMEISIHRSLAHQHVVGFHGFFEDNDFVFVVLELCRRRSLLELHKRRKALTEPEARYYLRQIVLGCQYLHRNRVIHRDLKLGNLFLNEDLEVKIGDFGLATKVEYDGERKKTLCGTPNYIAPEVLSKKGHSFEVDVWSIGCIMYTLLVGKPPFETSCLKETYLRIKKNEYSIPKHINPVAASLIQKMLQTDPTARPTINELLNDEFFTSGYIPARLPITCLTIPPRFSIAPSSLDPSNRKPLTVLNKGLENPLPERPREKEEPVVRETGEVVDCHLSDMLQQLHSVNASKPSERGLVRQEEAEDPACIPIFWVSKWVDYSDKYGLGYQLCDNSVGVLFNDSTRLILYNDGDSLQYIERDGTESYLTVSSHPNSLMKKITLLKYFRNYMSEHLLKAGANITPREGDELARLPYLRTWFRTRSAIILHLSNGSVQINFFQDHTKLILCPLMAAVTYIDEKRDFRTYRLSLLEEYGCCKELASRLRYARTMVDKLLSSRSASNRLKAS

Molecular target: Serine/threonine-protein kinase PLK1 (Homo sapiens) (UniProt P53350)
Assay: qHTS for Inhibitors of PLK1-PDB (polo-like kinase 1 - polo-box domain): Primary Screen; further: nearly all actives have a fitted effect of over 65% in size; on max response, negative = inhibition: series mostly up to about 57 µM
Conditions: Plk1 PBD binding of FITC phosphopeptide, fluorescence polarization
On the % scale 0 is the no-effect control and ±100 the full control effect; potency means the concentration at half of the fitted maximal effect.

Compound | Potency | max response, negative = inhibition
O=C1NN(c2ccccc2)C(=O)/C1=C\c1ccc(-c2cc([N+](=O)[O-])ccc2O)o1 | inconclusive: 26.7 µM [inhibitor, single point] | 
CCC(=O)Nc1ccc(Cl)c(NC(=S)NC(=O)COc2ccccc2)c1 | active: 26.7 µM | 
C[C@@H]1CC[C@]2(C(=O)O)CC[C@]3(C)C(=CCC4[C@]56CC[C@@](O)(OC5)C(C)(C)C6CC[C@]43C)C2[C@H]1C (stereo partly drawn) | inconclusive: 26.7 µM [inhibitor, single point] | 
CCN(CC)C(=O)CSc1ncnc2c(-c3cccs3)nsc12 | inconclusive: 18.9 µM [inhibitor, partial curve] | 
CN(C)C(CNc1ccc([N+](=O)[O-])cc1C#N)c1ccccc1 (stereo not drawn) | inconclusive: 18.9 µM [inhibitor, partial curve] | 
COC(=O)[C@@H]1[C@@H](C#N)C2(c3ccccc3-c3ccccc32)N(c2ccc(Cl)cc2)N1C#N | inconclusive: 4.23 µM [inhibitor, full curve] | 
COc1ccc(OCCN2CCC(C(=O)NC(c3ccccn3)c3ccccc3OC)CC2)cc1 (stereo not drawn) |  | inactive: 0.134%
NC(=O)c1c(N)[nH]c(C(=O)c2ccccc2)c1-c1ccncc1 |  | inactive: -16.7%
O=C(Cc1ccc(-c2ccccc2)cc1)NC(c1ccccc1)c1ccccc1 | active: 21.2 µM | 
CCc1nnc(NS(=O)(=O)c2ccc(NC(=O)/C=C/c3ccc(OC)cc3OC)cc2)s1 | inconclusive: 29.9 µM [inhibitor, single point] | 
O=C(NCCCN1CCOCC1)[C@@H]1CSC2c3ccccc3C(=O)N21 (stereo partly drawn) |  | inconclusive: -33.1% [inhibitor]
COc1ccc(OCC(=O)Nc2cc(OC)ccc2N2CCCCC2)cc1 | inconclusive: 21.2 µM [inhibitor, single point] | 
CCc1cc(-c2ccc3c(c2)COc2c4ccccc4nn2-3)on1 |  | inactive: -5.87%
Nc1sc(-c2ccccc2)cc1C(=O)N1CCNCC1 | inconclusive: 18.9 µM [inhibitor, single point] | 
CC(=O)Oc1ccc2c(c1)C(=O)c1ccccc1C2=O | inconclusive: 21.2 µM [inhibitor, single point] | 
CCOC(=O)c1cnc2ccc(C)cc2c1Sc1ccccc1C(=O)OC | active: 26.7 µM | 
COC(=O)c1cc(NC(=O)C2CC(=O)NC(=NCc3ccc(OC)cc3)S2)cc(C(=O)OC)c1 (stereo not drawn) | inconclusive: 37.7 µM [inhibitor, single point] | 
S=c1[nH]nc(C2COc3ccccc3O2)o1 (stereo not drawn) | inconclusive: 26.7 µM [inhibitor, single point] | 
COc1ccc(C(C)=O)cc1CSc1ccc2c(c1)OCCO2 | inconclusive: 16.8 µM [inhibitor, partial curve] | 
CCCCNCCOCCOc1ccccc1-c1ccccc1 |  | inactive: -8.63%
CSc1cccc(Nc2ccc(S(=O)(=O)N3CCOCC3)cc2[N+](=O)[O-])c1 |  | inactive: -3.74%
NC(=O)C1(N2CCCCC2)CCN(C(=O)c2ccc(-n3cnnn3)cc2)CC1 | active: 26.7 µM | 
O=C1c2c(O)ccc(O)c2C(=O)c2c(NCCNCCO)ccc(NCCNCCO)c21 |  | inactive: -21.1% and inactive: 7.97%
O=c1c(C(c2ccc(Br)cc2)c2c(O)nc3n(c2=O)CCCS3)c(O)nc2n1CCCS2 | inconclusive: 26.7 µM [inhibitor, single point] | 
CCOC(=O)c1c(NC(=S)NCc2ccccc2)sc2c1CCN(C(=O)OCC)C2 |  | inactive: -8.18%

Compound | Potency | max response, negative = inhibition
O=C1NC(=S)S/C1=C\c1coc2ccc(O)cc2c1=O | inconclusive: 21.2 µM [inhibitor, partial curve] | 
Cc1ccc(O)c(NC(=O)COc2cc(C)ccc2C)c1 | inconclusive: 21.2 µM [inhibitor, partial curve] | 
O=C(Cc1nnc(NC(=O)Nc2ccccc2F)s1)NCc1ccccc1 |  | inactive: 0.572%
O=C1SC(SCc2ccccc2)=N/C1=C\c1ccc(C(=O)O)cc1 | active: 18.9 µM | 
COc1ccc(NS(=O)(=O)c2cc(N)ccc2N2CCOCC2)cc1 | inconclusive: 18.9 µM [inhibitor, partial curve] | 
CC1(C)CC(=O)C2=C(C1)c1c(ccc3ccccc13)NC2c1ccco1 (stereo not drawn) |  | inactive: -6.19%
CCOc1ccc(OCC(=O)Nc2cc3c(cc2C(=O)O)OCCCO3)cc1 |  | inconclusive: -36.7% [inhibitor]
CC1CCc2c(sc3nn[nH]c(=O)c23)C1 (stereo not drawn) | inconclusive: 29.9 µM [inhibitor, partial curve] | 
O=C(Nc1cccc(C(F)(F)F)c1)C1(c2ccccc2)CC1 | inconclusive: 8.44 µM [inhibitor, single point] | 
COc1ccc2[nH]c(=S)cc(C)c2c1 | active: 4.74 µM | 
Cc1ccc(O)c(N=CC2=C(O)c3ccccc3C2=O)c1 | inconclusive: 23.8 µM [inhibitor, partial curve] | 
S=C(NCCN1CCOCC1)C(=S)NCCN1CCOCC1 | inconclusive: 26.7 µM [inhibitor, partial curve] | 
Cn1c2ccc(F)cc2c2nnc(SCCN3CCOCC3)nc21 | inconclusive: 16.8 µM [inhibitor, partial curve] | 
CC1CCCN(CC(=O)Nc2ccc(S(=O)(=O)N3CCCC3)cc2)C1 (stereo not drawn) |  | inactive: 0.0069%
COc1ccc(Cn2nnc3c(=O)[nH]c(C4CCCN(C(=O)c5ccccc5)C4)nc32)cc1 (stereo not drawn) |  | inactive: -9%
C=CCNC(=O)c1ccccc1NC(=O)c1ccccc1SC |  | inactive: -15.5%
Cc1cc(NC(=O)c2ccc(F)cc2)no1 |  | inactive: 1.79%
COc1ccccc1C(=O)Oc1ccccc1C(=O)Nc1ccccc1 |  | inactive: -4.92%
COc1ccc(CC(=O)N2CCC(c3ccccc3)C2)cc1 (stereo not drawn) |  | inactive: -1.69%
CC(C)CN1C(=O)C(=Nc2cccnc2)c2ccccc21 | inconclusive: 16.8 µM [inhibitor, partial curve] | 
O=C(CN1C(=O)NC2NC(=O)NC21)NC1CCCCC1 (stereo not drawn) | inconclusive: 26.7 µM [inhibitor, single point] | 
COc1ccc(CC(=O)NC2CCN(Cc3nnnn3C(C)(C)C)CC2)cc1OC |  | inactive: -5.35%
O=C(O)C/C(=C\c1ccc(N2CCOCC2)c([N+](=O)[O-])c1)c1nc2ccccc2s1 |  | inconclusive: -18% [inhibitor]
CCOc1ccc(-c2cnc3ccccc3n2)cc1 |  | inactive: 1.69%
O=C(Nc1ccc(F)c(Cl)c1)C1CC(=O)n2c(nc3ccccc32)N1 (stereo not drawn) |  | inactive: -11.3%

Compound | Potency | max response, negative = inhibition
C=C(CN(C)C)C(=O)c1cc(C)ccc1C | active: 2.67 µM | 
Cc1ccc(N(CC(=O)N=Nc2c(O)[nH]c3ccccc23)S(C)(=O)=O)c(C)c1 | inconclusive: 26.7 µM [inhibitor, partial curve] | 
O=C(CS(=O)CC(=O)N(CC(=O)NC1CCCC1)c1ccc2c(c1)OCCO2)Nc1ccc(F)cc1 (stereo not drawn) |  | inactive: -4.24%
CCCCN1C(=O)/C(=C2/Sc3ccccc3N2C)S/C1=N\c1ncn[nH]1 |  | inactive: 4.7%
CCOC(=O)N1CCN(C(=O)CCN2C(=O)/C(=C\c3ccc(OC)c(OC)c3)SC2=S)CC1 | inconclusive: 29.9 µM [inhibitor, single point] | 
O=C(NCc1ccc(Cl)cc1)c1ccc(-c2ccc(F)c(F)c2)c2ccoc12 |  | inactive: -10.2%
COc1ccc(CNC(=O)c2ccc(-n3ccnc3)c3ccoc23)cc1OC |  | inactive: -6.19%
CCCCCCCCN=C1NC(=O)CS1 | inconclusive: 23.8 µM [inhibitor, single point] | 
Cc1ccc(N2CCN(C(=O)c3ccccc3NC(=O)/C=C\C(=O)O)CC2)cc1 |  | inactive: -17.6%
CC(=O)C1=C(O)C(=O)N(CCCN2CCOCC2)C1c1ccccc1[N+](=O)[O-] (stereo not drawn) | inconclusive: 29.9 µM [inhibitor, single point] | 
O=C(CCSCc1cccc(F)c1)NCc1ccc(F)cc1 | active: 7.52 µM | 
O=S(=O)(/C=C/c1ccccc1)N1CCN(c2ccccc2)CC1 | inconclusive: 26.7 µM [inhibitor, partial curve] | 
O=C(Nc1ccc(O)c2c(=O)cc(-c3ccccc3Cl)oc12)c1cccc(Cl)c1 |  | inconclusive: -34.7% [inhibitor]
O=[N+]([O-])c1cc2c(c(CSc3ncccn3)c1)OCOC2 |  | inactive: -6.94%
Cc1ccc(NC(=O)c2cc(N3C(=O)C4CC=CCC4C3=O)ccc2N2CCOCC2)cc1Cl (stereo not drawn) |  | inactive: -4.79%
COc1ccc(N2CCN(CC(O)COc3ccc(C)cc3C)CC2)cc1 (stereo not drawn) |  | inactive: -9.43%
COc1ccc(CCNC(=O)/C=C/C(=O)O)cc1OC |  | inactive: -13.6%
C[C@@H]1CN([C@@H](C)CO)C(=O)CCCn2cc(nn2)CO[C@H]1CN(C)S(=O)(=O)c1ccc(Cl)cc1 |  | inconclusive: -33.3% [inhibitor]
COC(=O)C1Sc2[nH]c(=O)sc2C(c2ccc(Cl)cc2)C1C(=O)OC (stereo not drawn) |  | inconclusive: -33.1% [inhibitor]
O=C(N/C(C(=O)N1CCOCC1)=C(\Sc1ncccn1)c1ccccc1)c1ccccc1 | inconclusive: 21.2 µM [inhibitor, partial curve] | 
Cc1cc(C(=O)N/N=C/c2cccnc2)c2ccccc2n1 | inconclusive: 29.9 µM [inhibitor, partial curve] | 
Cn1ccc2c(-c3cccc(C=O)c3)cc3c(c21)C1CCC3C1 (stereo not drawn) |  | inconclusive: -30.9% [inhibitor]
COc1ccc(NS(=O)(=O)c2cc3c4c(c2)C(C)C(=O)N4CCC3)cc1 (stereo not drawn) |  | inactive: 0.916%
